The results in this text go back to PMC9192632.

Amino acid sequences for entries named in this document (tags omitted).
UniProt O60488: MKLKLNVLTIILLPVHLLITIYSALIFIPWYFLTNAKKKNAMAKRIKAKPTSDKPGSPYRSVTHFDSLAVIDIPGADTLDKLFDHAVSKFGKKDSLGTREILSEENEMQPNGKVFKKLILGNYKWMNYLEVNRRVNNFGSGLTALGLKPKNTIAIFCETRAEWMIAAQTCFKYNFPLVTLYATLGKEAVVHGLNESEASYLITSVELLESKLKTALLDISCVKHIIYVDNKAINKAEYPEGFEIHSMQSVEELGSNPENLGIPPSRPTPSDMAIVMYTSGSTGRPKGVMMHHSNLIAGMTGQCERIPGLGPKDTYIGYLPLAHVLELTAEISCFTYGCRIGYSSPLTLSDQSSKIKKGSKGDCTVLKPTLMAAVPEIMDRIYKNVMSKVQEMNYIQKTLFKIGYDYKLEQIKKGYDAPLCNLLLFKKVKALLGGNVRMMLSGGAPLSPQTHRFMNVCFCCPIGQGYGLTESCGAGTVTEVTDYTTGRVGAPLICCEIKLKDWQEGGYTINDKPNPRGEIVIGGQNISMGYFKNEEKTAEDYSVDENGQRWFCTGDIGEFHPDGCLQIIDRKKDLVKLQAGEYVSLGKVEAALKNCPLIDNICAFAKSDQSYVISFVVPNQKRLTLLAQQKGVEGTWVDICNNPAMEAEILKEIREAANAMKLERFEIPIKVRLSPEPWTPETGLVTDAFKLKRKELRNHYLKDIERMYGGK
UniProt O00429: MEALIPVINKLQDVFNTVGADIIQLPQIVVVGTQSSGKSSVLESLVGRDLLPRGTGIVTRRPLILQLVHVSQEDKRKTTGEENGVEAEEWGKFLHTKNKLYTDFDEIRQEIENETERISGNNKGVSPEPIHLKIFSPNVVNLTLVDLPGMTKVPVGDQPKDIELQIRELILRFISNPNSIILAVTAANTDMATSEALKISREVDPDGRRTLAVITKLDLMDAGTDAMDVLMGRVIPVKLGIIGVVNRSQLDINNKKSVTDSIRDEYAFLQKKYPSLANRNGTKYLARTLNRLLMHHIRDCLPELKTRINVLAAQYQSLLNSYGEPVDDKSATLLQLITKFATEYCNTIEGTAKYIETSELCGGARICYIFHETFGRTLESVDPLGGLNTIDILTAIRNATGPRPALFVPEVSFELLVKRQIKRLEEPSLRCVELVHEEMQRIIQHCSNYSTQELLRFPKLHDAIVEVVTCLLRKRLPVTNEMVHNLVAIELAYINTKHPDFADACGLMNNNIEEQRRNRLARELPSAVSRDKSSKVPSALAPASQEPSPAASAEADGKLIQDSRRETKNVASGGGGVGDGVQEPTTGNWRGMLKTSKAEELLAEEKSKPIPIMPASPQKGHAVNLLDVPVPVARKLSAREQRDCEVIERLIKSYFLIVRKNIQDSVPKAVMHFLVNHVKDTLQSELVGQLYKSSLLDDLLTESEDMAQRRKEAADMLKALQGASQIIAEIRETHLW

The target in this assay is Acyl-coenzyme A (CoA) synthetase long-chain family member 4 (human (endogenous in PL1 and PG7 patient-derived glioma cells)) (UniProt O60488). Put plainly: affinity purification with mass spectrometry; Acsl4 pull-down from PL1 cell lysate, SDS-PAGE with silver staining, whole-eluted samples examined by LC-MS/MS; compared with control.

Results are given in words; binding and its absence hold for the method and conditions named. Binding seen in cells or lysates may run through a third protein. These calls come from enrichment with a bait or labelling near it, and not all partners need be listed.

With “dynamin-related protein 1 (from UniProt O00429 1-736)”, the binding entry is given as “binds”.
